Results published in the supplement of paper PMC10849652.
Some of the results follow.

The chains behind the UniProt entries cited, without tags or fusion partners. Where a name states a change or a piece, a line headed by the entry shows the natural chain unless it says otherwise.
UniProt Q96ER9: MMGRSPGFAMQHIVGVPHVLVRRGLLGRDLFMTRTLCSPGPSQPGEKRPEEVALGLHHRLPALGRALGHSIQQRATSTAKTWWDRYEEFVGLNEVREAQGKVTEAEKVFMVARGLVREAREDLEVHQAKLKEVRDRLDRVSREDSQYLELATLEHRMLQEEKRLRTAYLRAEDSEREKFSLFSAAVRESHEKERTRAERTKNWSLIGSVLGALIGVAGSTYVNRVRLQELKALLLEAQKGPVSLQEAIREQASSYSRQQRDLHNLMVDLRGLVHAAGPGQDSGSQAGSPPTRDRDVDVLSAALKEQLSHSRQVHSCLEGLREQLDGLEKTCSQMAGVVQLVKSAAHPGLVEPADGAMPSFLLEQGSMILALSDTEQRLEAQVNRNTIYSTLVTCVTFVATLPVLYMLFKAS
UniProt Q6P1N0: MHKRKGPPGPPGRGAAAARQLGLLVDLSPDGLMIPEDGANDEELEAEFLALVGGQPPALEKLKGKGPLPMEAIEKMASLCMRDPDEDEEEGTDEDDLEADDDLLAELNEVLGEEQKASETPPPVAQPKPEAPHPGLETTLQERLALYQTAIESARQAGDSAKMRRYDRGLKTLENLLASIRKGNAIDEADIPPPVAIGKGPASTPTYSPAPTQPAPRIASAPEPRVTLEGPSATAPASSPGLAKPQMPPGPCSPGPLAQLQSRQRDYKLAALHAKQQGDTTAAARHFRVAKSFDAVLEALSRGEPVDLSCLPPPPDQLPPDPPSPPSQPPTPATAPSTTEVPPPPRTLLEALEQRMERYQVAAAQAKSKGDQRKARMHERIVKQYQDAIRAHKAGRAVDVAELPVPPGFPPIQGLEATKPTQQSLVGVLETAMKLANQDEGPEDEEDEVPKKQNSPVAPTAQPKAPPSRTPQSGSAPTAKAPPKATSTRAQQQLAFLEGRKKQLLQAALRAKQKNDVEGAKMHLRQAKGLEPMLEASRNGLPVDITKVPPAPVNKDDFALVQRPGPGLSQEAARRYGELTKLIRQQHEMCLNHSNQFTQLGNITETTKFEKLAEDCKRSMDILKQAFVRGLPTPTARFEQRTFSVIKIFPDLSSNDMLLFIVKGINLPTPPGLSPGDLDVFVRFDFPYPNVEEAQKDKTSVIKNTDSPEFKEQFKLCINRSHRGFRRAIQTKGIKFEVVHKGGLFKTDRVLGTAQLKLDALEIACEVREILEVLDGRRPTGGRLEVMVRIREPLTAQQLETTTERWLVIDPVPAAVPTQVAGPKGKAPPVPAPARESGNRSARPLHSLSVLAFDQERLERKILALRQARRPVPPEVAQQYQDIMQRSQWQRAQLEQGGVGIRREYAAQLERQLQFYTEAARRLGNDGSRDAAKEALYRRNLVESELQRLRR
UniProt Q8WXE0: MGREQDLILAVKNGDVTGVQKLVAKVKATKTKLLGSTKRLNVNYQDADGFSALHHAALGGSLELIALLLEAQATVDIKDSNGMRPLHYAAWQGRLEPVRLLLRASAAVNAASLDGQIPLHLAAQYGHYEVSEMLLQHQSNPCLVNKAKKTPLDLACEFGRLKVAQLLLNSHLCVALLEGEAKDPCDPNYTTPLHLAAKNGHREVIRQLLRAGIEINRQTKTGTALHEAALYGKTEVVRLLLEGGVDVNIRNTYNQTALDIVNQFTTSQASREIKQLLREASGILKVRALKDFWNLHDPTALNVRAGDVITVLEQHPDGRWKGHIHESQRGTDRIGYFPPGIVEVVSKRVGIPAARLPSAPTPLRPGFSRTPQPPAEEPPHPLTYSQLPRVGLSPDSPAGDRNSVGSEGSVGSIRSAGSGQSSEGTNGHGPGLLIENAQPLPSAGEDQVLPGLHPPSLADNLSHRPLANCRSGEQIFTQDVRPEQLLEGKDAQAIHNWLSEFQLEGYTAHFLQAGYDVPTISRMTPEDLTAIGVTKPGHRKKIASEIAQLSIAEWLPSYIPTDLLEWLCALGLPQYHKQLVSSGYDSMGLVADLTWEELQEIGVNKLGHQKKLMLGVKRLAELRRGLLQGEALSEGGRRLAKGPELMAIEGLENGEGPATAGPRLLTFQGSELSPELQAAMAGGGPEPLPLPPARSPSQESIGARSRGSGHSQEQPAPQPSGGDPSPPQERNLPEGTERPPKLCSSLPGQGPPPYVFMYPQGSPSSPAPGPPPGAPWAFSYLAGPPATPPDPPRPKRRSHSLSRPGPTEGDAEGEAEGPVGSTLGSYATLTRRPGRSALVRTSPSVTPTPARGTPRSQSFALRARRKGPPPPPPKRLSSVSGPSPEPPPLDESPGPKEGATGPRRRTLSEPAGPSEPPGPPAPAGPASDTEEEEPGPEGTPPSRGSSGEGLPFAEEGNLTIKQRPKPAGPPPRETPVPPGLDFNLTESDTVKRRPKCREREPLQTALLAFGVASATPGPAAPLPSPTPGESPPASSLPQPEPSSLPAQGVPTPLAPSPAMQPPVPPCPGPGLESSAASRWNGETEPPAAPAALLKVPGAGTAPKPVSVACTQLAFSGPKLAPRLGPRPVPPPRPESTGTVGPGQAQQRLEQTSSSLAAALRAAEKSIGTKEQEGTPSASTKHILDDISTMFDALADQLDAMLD
UniProt Q13951, whole entry, looked up: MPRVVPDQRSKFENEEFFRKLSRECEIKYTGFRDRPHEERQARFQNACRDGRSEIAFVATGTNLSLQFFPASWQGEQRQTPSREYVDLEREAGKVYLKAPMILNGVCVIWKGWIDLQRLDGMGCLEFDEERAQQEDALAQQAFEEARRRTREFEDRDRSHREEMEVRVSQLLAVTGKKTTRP
UniProt Q96JN2: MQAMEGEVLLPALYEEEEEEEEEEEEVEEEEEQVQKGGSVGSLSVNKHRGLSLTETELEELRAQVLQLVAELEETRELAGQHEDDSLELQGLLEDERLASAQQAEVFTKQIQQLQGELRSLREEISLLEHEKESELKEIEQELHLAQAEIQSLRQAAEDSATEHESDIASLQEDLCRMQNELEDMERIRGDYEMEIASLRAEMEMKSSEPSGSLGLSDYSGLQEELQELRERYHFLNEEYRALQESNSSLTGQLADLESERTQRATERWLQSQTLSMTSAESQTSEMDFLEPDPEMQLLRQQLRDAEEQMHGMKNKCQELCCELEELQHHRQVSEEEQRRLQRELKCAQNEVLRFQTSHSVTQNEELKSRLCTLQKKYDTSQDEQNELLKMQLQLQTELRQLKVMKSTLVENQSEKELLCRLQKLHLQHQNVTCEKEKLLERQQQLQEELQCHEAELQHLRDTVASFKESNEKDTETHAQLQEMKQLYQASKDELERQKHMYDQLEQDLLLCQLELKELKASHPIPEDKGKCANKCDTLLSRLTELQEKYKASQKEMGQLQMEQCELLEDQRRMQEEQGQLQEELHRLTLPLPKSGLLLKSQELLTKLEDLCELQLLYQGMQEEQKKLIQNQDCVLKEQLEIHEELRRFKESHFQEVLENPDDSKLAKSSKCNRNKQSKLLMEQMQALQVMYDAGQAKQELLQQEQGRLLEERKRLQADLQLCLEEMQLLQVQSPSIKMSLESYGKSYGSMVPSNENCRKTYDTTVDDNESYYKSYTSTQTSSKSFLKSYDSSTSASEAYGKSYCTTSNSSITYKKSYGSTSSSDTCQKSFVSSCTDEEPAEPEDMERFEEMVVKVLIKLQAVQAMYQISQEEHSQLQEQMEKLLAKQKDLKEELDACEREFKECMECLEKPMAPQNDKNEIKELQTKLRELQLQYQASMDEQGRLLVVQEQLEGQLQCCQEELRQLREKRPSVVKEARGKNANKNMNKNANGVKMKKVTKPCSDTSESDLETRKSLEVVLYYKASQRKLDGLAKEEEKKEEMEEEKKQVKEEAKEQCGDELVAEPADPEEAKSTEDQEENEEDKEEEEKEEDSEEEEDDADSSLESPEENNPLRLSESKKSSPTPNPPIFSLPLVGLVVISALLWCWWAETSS
UniProt P78371: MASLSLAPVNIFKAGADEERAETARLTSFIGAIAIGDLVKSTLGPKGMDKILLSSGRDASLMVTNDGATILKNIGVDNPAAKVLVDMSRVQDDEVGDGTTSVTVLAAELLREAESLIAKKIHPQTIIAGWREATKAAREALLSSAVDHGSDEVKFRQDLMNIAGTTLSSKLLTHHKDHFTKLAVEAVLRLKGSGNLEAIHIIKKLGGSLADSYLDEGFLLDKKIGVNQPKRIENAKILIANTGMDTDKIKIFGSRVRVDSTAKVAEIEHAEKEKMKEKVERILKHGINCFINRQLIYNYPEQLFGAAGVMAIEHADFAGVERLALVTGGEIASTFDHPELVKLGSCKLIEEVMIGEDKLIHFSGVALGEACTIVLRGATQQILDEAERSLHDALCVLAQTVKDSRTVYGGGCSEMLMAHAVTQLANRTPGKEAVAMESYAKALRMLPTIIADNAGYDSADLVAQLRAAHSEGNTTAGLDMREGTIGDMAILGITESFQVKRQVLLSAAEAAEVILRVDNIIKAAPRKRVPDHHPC
UniProt Q9NQ75: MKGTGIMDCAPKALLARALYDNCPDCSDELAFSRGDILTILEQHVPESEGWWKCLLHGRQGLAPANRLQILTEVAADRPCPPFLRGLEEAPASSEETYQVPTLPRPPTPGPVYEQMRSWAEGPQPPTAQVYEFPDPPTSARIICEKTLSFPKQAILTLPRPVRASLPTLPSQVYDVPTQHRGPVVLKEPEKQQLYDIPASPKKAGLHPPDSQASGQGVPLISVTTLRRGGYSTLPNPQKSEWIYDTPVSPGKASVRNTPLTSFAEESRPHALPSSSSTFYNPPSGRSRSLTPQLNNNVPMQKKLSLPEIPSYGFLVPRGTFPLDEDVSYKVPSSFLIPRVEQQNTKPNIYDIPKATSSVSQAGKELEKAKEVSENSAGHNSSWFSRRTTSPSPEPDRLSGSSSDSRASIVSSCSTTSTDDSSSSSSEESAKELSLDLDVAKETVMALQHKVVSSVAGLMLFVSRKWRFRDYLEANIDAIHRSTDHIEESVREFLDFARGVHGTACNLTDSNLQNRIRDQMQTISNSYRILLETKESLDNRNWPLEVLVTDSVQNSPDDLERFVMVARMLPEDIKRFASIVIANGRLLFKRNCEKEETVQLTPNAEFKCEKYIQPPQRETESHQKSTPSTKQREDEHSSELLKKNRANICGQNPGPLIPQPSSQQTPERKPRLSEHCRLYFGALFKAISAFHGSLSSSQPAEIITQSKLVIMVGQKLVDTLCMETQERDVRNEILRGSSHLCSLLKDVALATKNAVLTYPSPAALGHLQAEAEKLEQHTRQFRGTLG
UniProt P49589: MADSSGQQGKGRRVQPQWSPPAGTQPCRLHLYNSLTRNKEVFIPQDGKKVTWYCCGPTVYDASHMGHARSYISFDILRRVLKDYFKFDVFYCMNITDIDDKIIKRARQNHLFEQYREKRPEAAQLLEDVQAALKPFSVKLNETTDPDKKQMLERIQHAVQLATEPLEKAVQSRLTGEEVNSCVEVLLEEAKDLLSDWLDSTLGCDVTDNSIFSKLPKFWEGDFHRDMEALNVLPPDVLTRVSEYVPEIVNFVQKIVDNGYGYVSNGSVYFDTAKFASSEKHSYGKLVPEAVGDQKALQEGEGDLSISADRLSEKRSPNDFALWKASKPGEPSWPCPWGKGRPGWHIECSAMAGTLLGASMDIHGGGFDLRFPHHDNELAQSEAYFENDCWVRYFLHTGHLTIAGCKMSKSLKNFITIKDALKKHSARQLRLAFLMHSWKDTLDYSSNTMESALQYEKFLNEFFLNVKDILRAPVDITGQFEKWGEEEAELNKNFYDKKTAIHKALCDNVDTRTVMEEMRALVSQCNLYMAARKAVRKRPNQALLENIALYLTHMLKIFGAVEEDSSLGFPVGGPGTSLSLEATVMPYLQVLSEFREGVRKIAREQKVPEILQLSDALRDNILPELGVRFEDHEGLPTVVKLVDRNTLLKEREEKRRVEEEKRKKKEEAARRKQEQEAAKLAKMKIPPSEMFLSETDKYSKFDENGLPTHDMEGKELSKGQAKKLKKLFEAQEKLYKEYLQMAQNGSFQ
UniProt Q9P031: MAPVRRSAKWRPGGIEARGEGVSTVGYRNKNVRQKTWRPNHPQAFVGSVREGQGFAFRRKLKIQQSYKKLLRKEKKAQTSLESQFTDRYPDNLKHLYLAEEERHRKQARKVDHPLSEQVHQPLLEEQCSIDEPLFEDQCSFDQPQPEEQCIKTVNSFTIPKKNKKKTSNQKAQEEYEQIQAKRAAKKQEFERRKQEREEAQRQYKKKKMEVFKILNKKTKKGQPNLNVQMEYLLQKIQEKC
UniProt Q96BQ5: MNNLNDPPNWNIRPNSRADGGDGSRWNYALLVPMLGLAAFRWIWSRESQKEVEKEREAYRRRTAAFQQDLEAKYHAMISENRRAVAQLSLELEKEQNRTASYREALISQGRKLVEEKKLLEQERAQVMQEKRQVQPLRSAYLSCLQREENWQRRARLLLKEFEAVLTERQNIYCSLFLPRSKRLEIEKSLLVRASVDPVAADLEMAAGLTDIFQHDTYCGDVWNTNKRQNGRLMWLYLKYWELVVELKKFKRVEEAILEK

What was measured:
Assay in all cases: log2 fold change, soluble protein after heating vs DMSO (PISA); higher = thermal stabilisation; K562 lysate, 10 uM; active = over 0.2 and 3.5 SD of the protein, either way, in both replicates (recomputed)
alvocidib = compound: CN1CC[C@H](c2c(O)cc(O)c3c(=O)cc(-c4ccccc4Cl)oc23)[C@H](O)C1 [alvocidib]
How it was run: (§1)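 Quantification was by TMTpro 16plex LC-MS/MS with equalised channel sums, applied to the supernatant after 21,000xg for 90 min. Samples were crude K562 extract at 1 mg/mL protein in PBS pH 7.4 with 1 mM MgCl2, treated with 10 μM compound for 30 min, heated for 3 min across 48°C-58°C, pooled and brought to 0.5% NP-40 at 4°C. Values are log-two fold changes in thermal stability relative to solvent controls, from duplicates.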

Tubastatin A = compound: CN1CCc2c(c3ccccc3n2Cc2ccc(C(=O)NO)cc2)C1 [Tubastatin A]
How it was run: as §1

[1] = compound: CNC(=O)C1=CC=CC=C1NC2=NC(=NC=C2Cl)NC3=C(C=C(C=C3)N4CCOCC4)OC
How it was run: as §1

defactinib = compound: CNC(=O)c1ccc(Nc2ncc(C(F)(F)F)c(NCc3nccnc3N(C)S(C)(=O)=O)n2)cc1 [defactinib]
How it was run: as §1

[2] = compound: CNc1nc(-c2ccc3c(N)n[nH]c3c2)cc(N2C[C@@H](C(=O)NC3CCCCC3)CC[C@H]2C)n1
How it was run: as §1

encorafenib = compound: COC(=O)N[C@@H](C)CNc1nccc(-c2cn(C(C)C)nc2-c2cc(Cl)cc(NS(C)(=O)=O)c2F)n1 [encorafenib]
How it was run: as §1

[3] = compound: COC(=O)[C@H](CCSC)NC(=O)C1=C(C=C(C=C1)NC[C@H](CS)N)C2=CC=CC=C2
How it was run: as §1

alisertib = compound: COc1cc(Nc2ncc3c(n2)-c2ccc(Cl)cc2C(c2c(F)cccc2OC)=NC3)ccc1C(=O)O [alisertib]
How it was run: as §1

[4] = compound: COc1cc2nc(-c3cc(F)ccc3O)nc(N[C@@H]3CNC[C@H]3C(C)(C)O)c2cc1OC
How it was run: as §1

gefitinib = compound: COc1cc2ncnc(Nc3ccc(F)c(Cl)c3)c2cc1OCCCN1CCOCC1 [gefitinib]
How it was run: as §1

| Target | log2 fold change (alvocidib) | log2 fold change (Tubastatin A) | log2 fold change [1] | log2 fold change (defactinib) | log2 fold change [2] | log2 fold change (encorafenib) | log2 fold change [3] | log2 fold change (alisertib) | log2 fold change [4] | log2 fold change (gefitinib) |
| --- | --- | --- | --- | --- | --- | --- | --- | --- | --- | --- |
| CARS2 (UniProt Q9HA77) | inactive: 0.025 | inactive: 0.023 | inactive: -0.013 | inactive: 0.023 | inactive: -0.04 | inactive: 0.016 | inactive: 0.054 | inactive: -0.045 | inactive: 0.051 | inactive: -0.068 |
| CCDC91 (UniProt Q7Z6B0) | inactive: 0.028 | inactive: -0.004 | inactive: -0.012 | inactive: 0.01 | inactive: -0.047 | inactive: 0.02 | inactive: -0.057 | inactive: 0 | inactive: -0.021 | inactive: -0.011 |
| CD46 isoform 2 (UniProt P15529) | inactive: 0.003 | inactive: 0.01 | inactive: -0.015 | inactive: 0.002 | inactive: -0.071 | inactive: -0.037 | inactive: -0.032 | inactive: 0.002 | inactive: -0.001 | inactive: 0.02 |
| CASP3 (UniProt P42574) | inactive: 0.045 | inactive: 0.056 | inactive: 0.066 | inactive: 0.008 | inactive: 0.064 | inactive: 0.011 | inactive: -0.061 | inactive: -0.037 | inactive: 0.001 | inactive: -0.001 |
| CASP8 isoform 9 (UniProt Q14790) | inactive: -0.008 | inactive: -0.013 | inactive: 0.06 | inactive: 0.044 | inactive: -0.026 | inactive: -0.012 | inactive: 0.022 | inactive: 0 | inactive: -0.006 | inactive: -0.007 |
| CCDC51 (UniProt Q96ER9) | inactive: 0.127 | inactive: -0.037 | inactive: -0.001 | inactive: 0.008 | inactive: 0.038 | inactive: -0.008 | inactive: -0.001 | inactive: 0.016 | inactive: -0.066 | inactive: 0.022 |
| CCNL2 (UniProt Q96S94) | inactive: 0.048 | inactive: -0.079 | inactive: 0.071 | inactive: 0.046 | inactive: 0.043 | inactive: 0.053 | inactive: 0.062 | inactive: -0.013 | inactive: 0.026 | inactive: -0.037 |
| CC2D1A (UniProt Q6P1N0) | inactive: -0.052 | inactive: -0.022 | inactive: 0.014 | inactive: -0.041 | inactive: 0.022 | inactive: 0.017 | inactive: -0.061 | inactive: 0 | inactive: -0.007 | inactive: -0.02 |
| CASKIN2 (UniProt Q8WXE0) | inactive: 0.045 | inactive: 0.035 | inactive: 0.034 | inactive: 0.004 | inactive: 0.042 | inactive: -0.019 | inactive: -0.018 | inactive: 0.005 | inactive: 0.016 | inactive: -0.006 |
| CCDC28B (UniProt Q9BUN5) | inactive: -0.143 | inactive: -0.096 | inactive: 0.01 | inactive: 0.033 | inactive: 0.099 | inactive: 0.029 | inactive: -0.08 | inactive: 0.04 | inactive: 0.065 | inactive: -0.047 |
| CASK (UniProt O14936) | inactive: 0.093 | inactive: 0.007 | inactive: -0.059 | inactive: 0.043 | inactive: -0.222 | inactive: 0.006 | inactive: -0.049 | – | inactive: 0.022 | – |
| CBFB (UniProt Q13951) | inactive: -0.002 | inactive: 0.018 | inactive: -0.012 | – | inactive: -0.019 | inactive: -0.015 | inactive: -0.017 | inactive: 0.002 | inactive: -0.018 | inactive: -0.028 |
| CCDC9 (UniProt Q9Y3X0) | inactive: 0.015 | inactive: 0.009 | inactive: 0.003 | inactive: 0.035 | inactive: 0.039 | inactive: 0.005 | inactive: -0.027 | inactive: -0.044 | inactive: -0.009 | inactive: -0.043 |
| CCDC18 (UniProt Q5T9S5) | inactive: -0.08 | inactive: 0.073 | – | – | inactive: 0.137 | inactive: -0.037 | inactive: 0.016 | inactive: -0.092 | – | inactive: -0.111 |
| CCDC136 isoform 4 (UniProt Q96JN2) | inactive: 0.136 | – | inactive: 0.023 | inactive: 0.005 | inactive: 0.061 | inactive: -0.018 | inactive: 0.055 | – | – | – |
| CCM2 isoform 2 (UniProt Q9BSQ5) | inactive: -0.029 | inactive: 0.046 | inactive: 0.011 | inactive: 0.038 | inactive: 0.016 | inactive: -0.036 | inactive: -0.101 | inactive: -0.01 | inactive: 0.044 | inactive: -0.019 |

Quoted from the listing.
In log2 fold change [2], CCDC51 (UniProt Q96ER9) shows inactive: 0.038
In log2 fold change [3], CCDC136 isoform 4 (UniProt Q96JN2) shows inactive: 0.055

The list continues.

| Target | log2 fold change (alvocidib) | log2 fold change (Tubastatin A) | log2 fold change [1] | log2 fold change (defactinib) | log2 fold change [2] | log2 fold change (encorafenib) | log2 fold change [3] | log2 fold change (alisertib) | log2 fold change [4] | log2 fold change (gefitinib) |
| --- | --- | --- | --- | --- | --- | --- | --- | --- | --- | --- |
| CAV2 (UniProt P51636) | inactive: -0.029 | inactive: -0.328 | inactive: -0.093 | – | inactive: -0.406 | – | – | – | inactive: 0.012 | – |
| CCT2 (UniProt P78371) | inactive: 0.013 | inactive: 0.037 | inactive: 0.01 | inactive: -0.013 | inactive: -0.019 | inactive: -0.009 | inactive: -0.018 | inactive: 0.003 | inactive: 0.001 | inactive: -0.021 |
| CASP8AP2 (UniProt Q9UKL3) | inactive: 0.021 | inactive: 0.137 | – | – | – | inactive: -0.001 | inactive: 0.22 | – | – | – |
| CBX5 (UniProt P45973) | inactive: -0.07 | inactive: 0.037 | inactive: 0.073 | inactive: -0.011 | inactive: 0.021 | inactive: -0.035 | inactive: -0.007 | inactive: -0.054 | inactive: 0.021 | inactive: 0.009 |
| CBX3 (UniProt B8ZZ43) | inactive: -0.002 | inactive: -0.068 | – | – | – | – | – | inactive: 0.107 | – | inactive: 0.201 |
| CCNE1 (UniProt P24864) | inactive: 0.04 | inactive: -0.023 | – | inactive: -0.04 | inactive: 0.104 | inactive: 0 | inactive: -0.079 | – | inactive: 0.027 | – |
| CASS4 (UniProt Q9NQ75) | inactive: -0.045 | inactive: -0.069 | inactive: -0.046 | inactive: -0.025 | inactive: 0.085 | inactive: -0.186 | inactive: -0.077 | inactive: 0.029 | – | inactive: -0.086 |
| CBS (UniProt P35520) | inactive: 0.023 | inactive: 0.016 | inactive: -0.04 | inactive: 0.011 | inactive: -0.052 | inactive: -0.001 | inactive: 0 | inactive: 0.017 | inactive: 0.003 | inactive: -0.004 |
| CCDC85C (UniProt A6NKD9) | inactive: 0 | – | – | inactive: -0.003 | inactive: 0.036 | inactive: -0.053 | inactive: -0.103 | inactive: -0.039 | inactive: -0.08 | inactive: -0.089 |
| CCDC57 (UniProt Q2TAC2) | inactive: -0.04 | inactive: 0.041 | – | inactive: -0.057 | inactive: 0.076 | inactive: 0.065 | inactive: -0.056 | inactive: -0.008 | inactive: 0.026 | inactive: -0.028 |
| CARS isoform 3 (UniProt P49589) | inactive: 0.006 | inactive: -0.041 | inactive: 0.001 | inactive: -0.013 | inactive: -0.01 | inactive: -0.013 | active: 0.213 | inactive: 0.003 | inactive: -0.005 | inactive: -0.019 |
| CD68 (UniProt P34810) | inactive: -0.097 | – | inactive: 0.186 | – | – | inactive: 0.515 | inactive: -0.504 | – | – | – |
| CCND3 (UniProt P30281) | inactive: 0.144 | inactive: -0.001 | inactive: 0.024 | – | inactive: 0.037 | inactive: 0.081 | inactive: -0.128 | inactive: 0.073 | – | inactive: 0.201 |
| CCDC59 (UniProt Q9P031) | inactive: -0.004 | – | – | inactive: 0.01 | inactive: 0.095 | inactive: 0.075 | inactive: -0.022 | inactive: -0.042 | inactive: 0.045 | inactive: -0.026 |
| CCDC127 (UniProt Q96BQ5) | inactive: -0.001 | inactive: 0.026 | inactive: 0.008 | – | inactive: 0.006 | inactive: 0.082 | inactive: -0.143 | – | inactive: 0.04 | – |
